PubChem BioAssay AID1259261, Sanger Institute, 2017

Aim: 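siRNA screen across the kinome for kinases that are essential and partners synergising with drugs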 (primary screen)
System: HCC2998 human colorectal cancer cells
Reagent: siRNA pool against human genes
Treatment: anchor drugs BYL719 1 µM, cetuximab 5 µg/ml or trametinib 10 nM, each compared with DMSO vehicle
Measurement: 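Cell viability relative to non-targeting siRNA, averaged over replicates, with robust z-score for siRNA alone and synergy scores with each anchor drug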
Reading the numbers: viability z-score, knock-down alone: higher = more viable cells than controls; viability fraction, knock-down alone: higher = more viable cells
Active means: 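a knock-down is called essential if its robust z-score without drug is under -3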
Calls: active = essential; inactive = no change
The deposit covers 794 reagents; this is a random part of them. 10 of them (1.3%) count as active. 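Calls reflect knock-down alone without drug; synergy scores with BYL719, cetuximab or trametinib do not affect calls.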 No viability above 1 is reported: the scale is capped. Not all columns of the deposit are shown. Not given: the amount of reagent, the time to read-out.

GCK showed viability z-score, knock-down alone -1.08; viability fraction, knock-down alone 0.714; inactive.
After knock-down of TRPM6 the results were viability z-score, knock-down alone 1.21; viability fraction, knock-down alone 1; inactive.
After knock-down of IDH2, the screen gave viability z-score, knock-down alone -0.191; viability fraction, knock-down alone 0.825; inactive.
TSSK1B showed viability z-score, knock-down alone -0.229; viability fraction, knock-down alone 0.82; inactive.
Knock-down of STK32A gave: viability z-score, knock-down alone 1.21; viability fraction, knock-down alone 1; inactive.
For FOXP1, the values are viability z-score, knock-down alone -0.888; viability fraction, knock-down alone 0.738; inactive.
With knock-down of MASTL the results were viability z-score, knock-down alone 0.863; viability fraction, knock-down alone 0.957; inactive.
After knock-down of DGKQ the results were viability z-score, knock-down alone -0.0352; viability fraction, knock-down alone 0.844; inactive.
With knock-down of DYRK1B the results were viability z-score, knock-down alone 0.145; viability fraction, knock-down alone 0.867; inactive.
For PGK2, the values are viability z-score, knock-down alone 0.5; viability fraction, knock-down alone 0.912; inactive.
For BCKDK, the entry reads viability z-score, knock-down alone 1.21; viability fraction, knock-down alone 1; inactive.
Silencing of PTGS1 gave: viability z-score, knock-down alone -0.00608; viability fraction, knock-down alone 0.848; inactive.
Against EPHA6, the values are viability z-score, knock-down alone -2.69; viability fraction, knock-down alone 0.512; inactive.

Entries above whose target name starts with D or d (2):
DGKQ — viability z-score, knock-down alone: -0.0352; viability fraction, knock-down alone: 0.844; outcome: inactive
DYRK1B — viability z-score, knock-down alone: 0.145; viability fraction, knock-down alone: 0.867; outcome: inactive

The list goes on.
Depletion of RPS6KB2 gave: viability z-score, knock-down alone 1.21; viability fraction, knock-down alone 1; inactive.
After knock-down of APC, the record shows viability z-score, knock-down alone 0.528; viability fraction, knock-down alone 0.915; inactive.
Against EIF2AK1, the values are viability z-score, knock-down alone -0.0545; viability fraction, knock-down alone 0.842; inactive.
With knock-down of PGK1, the record shows viability z-score, knock-down alone 0.107; viability fraction, knock-down alone 0.862; inactive.
Against PEAK1 the deposit lists viability z-score, knock-down alone -0.161; viability fraction, knock-down alone 0.829; inactive.
PRKACG showed viability z-score, knock-down alone -0.734; viability fraction, knock-down alone 0.757; inactive.
With knock-down of NRBP2, the screen gave viability z-score, knock-down alone -0.387; viability fraction, knock-down alone 0.8; inactive.
ERBB4 gave viability z-score, knock-down alone 0.145; viability fraction, knock-down alone 0.867; inactive.
SMC1A scored viability z-score, knock-down alone -2.17; viability fraction, knock-down alone 0.577; inactive.
Depletion of ATP23 resulted in: viability z-score, knock-down alone 1.17; viability fraction, knock-down alone 0.996; inactive.
After knock-down of TLK1, the screen gave viability z-score, knock-down alone -0.556; viability fraction, knock-down alone 0.779; inactive.
Against PRKAG2 the deposit lists viability z-score, knock-down alone 0.639; viability fraction, knock-down alone 0.929; inactive.
For IKBKB the deposit lists viability z-score, knock-down alone 0.809; viability fraction, knock-down alone 0.95; inactive.
With knock-down of EPHA1, the record shows viability z-score, knock-down alone 0.377; viability fraction, knock-down alone 0.896; inactive.
Knock-down of FLT4 resulted in: viability z-score, knock-down alone 0.618; viability fraction, knock-down alone 0.926; inactive.
